Article PMC8055027
These are yes or no findings as the source states them, for the method shown. Binding seen in cells or lysates may run through a third protein. Some binding calls cover weakened binding; strength is not graded here.

Protein sequences, listed by entry. Tags and fused reporters are not part of them.
UniProt P11388: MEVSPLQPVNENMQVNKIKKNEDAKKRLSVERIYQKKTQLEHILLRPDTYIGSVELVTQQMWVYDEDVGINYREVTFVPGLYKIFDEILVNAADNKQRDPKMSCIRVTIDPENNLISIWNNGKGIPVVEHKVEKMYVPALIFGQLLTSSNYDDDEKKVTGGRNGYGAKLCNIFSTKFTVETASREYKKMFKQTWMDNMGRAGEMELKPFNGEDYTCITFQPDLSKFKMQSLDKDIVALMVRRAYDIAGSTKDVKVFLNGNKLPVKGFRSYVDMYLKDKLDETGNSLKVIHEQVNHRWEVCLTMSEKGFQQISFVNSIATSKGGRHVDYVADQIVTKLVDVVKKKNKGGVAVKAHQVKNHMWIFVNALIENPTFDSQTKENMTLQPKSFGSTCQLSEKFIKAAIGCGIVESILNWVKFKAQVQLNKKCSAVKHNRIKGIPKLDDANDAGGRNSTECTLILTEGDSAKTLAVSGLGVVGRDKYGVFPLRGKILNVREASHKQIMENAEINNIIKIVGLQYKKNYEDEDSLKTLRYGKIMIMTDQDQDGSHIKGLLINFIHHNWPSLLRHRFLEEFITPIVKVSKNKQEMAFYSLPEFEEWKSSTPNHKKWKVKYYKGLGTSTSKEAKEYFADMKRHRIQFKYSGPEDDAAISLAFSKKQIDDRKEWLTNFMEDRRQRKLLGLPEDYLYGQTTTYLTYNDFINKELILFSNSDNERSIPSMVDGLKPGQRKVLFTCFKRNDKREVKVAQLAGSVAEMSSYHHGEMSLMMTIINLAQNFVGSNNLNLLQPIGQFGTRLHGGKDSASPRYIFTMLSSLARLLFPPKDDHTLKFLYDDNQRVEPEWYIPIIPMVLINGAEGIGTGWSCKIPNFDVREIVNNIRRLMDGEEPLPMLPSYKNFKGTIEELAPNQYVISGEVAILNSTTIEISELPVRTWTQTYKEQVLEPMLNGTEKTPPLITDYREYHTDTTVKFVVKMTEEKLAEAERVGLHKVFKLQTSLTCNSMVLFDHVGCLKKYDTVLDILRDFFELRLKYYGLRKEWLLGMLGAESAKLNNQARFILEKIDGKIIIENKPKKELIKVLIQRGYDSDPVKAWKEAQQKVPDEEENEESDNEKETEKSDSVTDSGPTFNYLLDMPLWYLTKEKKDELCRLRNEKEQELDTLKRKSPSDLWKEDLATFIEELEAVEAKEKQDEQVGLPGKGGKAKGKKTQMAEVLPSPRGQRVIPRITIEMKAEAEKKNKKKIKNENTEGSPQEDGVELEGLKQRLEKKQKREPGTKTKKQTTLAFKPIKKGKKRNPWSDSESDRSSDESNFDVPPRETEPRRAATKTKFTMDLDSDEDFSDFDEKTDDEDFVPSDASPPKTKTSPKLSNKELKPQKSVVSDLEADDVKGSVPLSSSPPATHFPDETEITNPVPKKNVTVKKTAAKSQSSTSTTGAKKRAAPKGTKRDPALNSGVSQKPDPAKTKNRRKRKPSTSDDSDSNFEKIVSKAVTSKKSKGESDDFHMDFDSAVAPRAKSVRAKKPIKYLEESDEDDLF
UniProt Q92922: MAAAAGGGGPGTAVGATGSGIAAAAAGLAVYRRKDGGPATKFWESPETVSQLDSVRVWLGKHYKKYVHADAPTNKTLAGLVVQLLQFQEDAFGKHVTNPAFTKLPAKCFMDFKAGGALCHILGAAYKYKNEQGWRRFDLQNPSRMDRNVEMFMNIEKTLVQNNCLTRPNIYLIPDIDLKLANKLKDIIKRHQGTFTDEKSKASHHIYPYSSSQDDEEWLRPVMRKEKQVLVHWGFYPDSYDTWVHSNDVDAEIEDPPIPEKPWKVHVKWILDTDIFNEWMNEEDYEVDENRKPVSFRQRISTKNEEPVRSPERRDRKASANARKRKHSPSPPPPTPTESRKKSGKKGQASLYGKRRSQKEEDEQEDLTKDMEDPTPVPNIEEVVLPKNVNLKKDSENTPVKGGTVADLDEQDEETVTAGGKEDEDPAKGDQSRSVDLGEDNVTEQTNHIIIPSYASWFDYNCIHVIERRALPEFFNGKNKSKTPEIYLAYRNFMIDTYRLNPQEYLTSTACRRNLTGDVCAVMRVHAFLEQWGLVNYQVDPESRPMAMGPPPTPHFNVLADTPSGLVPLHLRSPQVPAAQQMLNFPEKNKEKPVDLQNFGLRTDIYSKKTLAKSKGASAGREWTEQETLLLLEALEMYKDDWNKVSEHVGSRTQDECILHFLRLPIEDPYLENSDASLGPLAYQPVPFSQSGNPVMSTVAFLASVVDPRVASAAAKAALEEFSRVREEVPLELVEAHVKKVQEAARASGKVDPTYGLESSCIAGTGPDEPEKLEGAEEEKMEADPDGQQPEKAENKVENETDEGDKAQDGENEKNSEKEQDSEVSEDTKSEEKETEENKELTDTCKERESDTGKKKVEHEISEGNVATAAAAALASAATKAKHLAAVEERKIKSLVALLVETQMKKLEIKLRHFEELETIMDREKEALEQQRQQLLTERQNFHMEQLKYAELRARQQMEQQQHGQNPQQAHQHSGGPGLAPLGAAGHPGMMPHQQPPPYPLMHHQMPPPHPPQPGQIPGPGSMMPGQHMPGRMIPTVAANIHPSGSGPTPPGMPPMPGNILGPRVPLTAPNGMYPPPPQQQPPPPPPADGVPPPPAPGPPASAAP
UniProt P51532: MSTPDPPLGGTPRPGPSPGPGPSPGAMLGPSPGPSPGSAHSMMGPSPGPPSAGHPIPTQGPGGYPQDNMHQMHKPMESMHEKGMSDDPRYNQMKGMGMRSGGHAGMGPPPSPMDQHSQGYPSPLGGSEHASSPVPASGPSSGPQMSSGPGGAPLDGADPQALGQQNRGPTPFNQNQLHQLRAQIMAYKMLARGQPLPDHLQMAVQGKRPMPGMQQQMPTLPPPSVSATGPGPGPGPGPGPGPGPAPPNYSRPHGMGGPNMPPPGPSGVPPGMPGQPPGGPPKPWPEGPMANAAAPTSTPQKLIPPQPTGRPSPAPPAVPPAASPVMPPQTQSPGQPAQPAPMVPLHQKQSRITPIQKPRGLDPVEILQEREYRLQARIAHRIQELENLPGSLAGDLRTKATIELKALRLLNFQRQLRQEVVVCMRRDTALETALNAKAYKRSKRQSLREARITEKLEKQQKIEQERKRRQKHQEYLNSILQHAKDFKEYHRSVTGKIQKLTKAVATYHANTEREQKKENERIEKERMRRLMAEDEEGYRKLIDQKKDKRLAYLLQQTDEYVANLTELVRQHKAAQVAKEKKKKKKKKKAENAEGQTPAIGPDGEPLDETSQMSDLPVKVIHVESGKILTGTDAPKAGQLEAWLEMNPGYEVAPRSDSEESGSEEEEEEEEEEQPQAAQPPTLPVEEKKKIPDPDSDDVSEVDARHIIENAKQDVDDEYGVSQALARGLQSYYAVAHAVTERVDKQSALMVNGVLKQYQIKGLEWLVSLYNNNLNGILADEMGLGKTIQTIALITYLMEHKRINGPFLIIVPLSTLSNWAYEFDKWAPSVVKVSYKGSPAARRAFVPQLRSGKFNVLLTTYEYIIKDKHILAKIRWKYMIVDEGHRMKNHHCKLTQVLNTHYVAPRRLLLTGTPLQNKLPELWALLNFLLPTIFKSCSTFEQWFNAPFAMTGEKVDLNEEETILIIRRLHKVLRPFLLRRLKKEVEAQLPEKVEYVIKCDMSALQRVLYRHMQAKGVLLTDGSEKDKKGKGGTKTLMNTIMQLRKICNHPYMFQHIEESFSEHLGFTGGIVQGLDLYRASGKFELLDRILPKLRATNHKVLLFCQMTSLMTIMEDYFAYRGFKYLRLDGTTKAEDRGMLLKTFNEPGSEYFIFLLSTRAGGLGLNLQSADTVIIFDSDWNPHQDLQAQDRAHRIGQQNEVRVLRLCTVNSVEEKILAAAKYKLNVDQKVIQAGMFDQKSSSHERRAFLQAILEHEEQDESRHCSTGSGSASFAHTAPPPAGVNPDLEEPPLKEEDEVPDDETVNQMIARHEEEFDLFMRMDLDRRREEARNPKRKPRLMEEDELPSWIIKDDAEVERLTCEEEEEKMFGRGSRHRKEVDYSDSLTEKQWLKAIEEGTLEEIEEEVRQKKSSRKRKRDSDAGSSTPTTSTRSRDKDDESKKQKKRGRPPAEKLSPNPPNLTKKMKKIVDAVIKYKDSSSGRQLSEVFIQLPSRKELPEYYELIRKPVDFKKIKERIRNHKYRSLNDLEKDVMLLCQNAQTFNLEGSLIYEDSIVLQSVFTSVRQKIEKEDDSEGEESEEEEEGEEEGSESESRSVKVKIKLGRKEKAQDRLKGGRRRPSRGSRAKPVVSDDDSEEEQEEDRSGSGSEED

Biological target: Topoisomerase IIα (human (endogenous in RMG1)) (UniProt P11388)
Assay: co-IP; TOP2A antibody (3 ug) on Protein G magnetic beads; total nuclear protein of ARID1A-WT and ARID1A-KO RMG1 cells in CHAPS buffer, 4°C overnight, 4 washes with CHAPS buffer; western blot; IgG control

Row | binding | Substance
1 | binds | BAF155 subunit of the BAF complex (from UniProt Q92922 1-1105)
2 | binds | Brg1, catalytic subunit of the BAF complex (from UniProt P51532 1-1647)
